Out of some 220,000 compounds screened, about 770 (0.35%) were called active. The inconclusive results got no clear call from the source; some entries with a clear call stand among them for comparison. Rule as the data show it: active = binding response below about 49% or above about 150%; inconclusive = no clear call, values can overlap the other calls; inactive = in between.
Target: Guanine nucleotide-binding protein G(o) subunit alpha (Homo sapiens) (UniProt P09471)
Experiment: RGS7-Galphao binding modulators, primary screen, biochemical, multiplexed bead flow cytometry (AID 1439);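 also: fluorescent Galphao held in activated GDP-AlF4 state binding bead-coupled RGS7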
Conditions: at 10 µM, actives lie on both sides

Protein sequences, listed by entry. Tags and fused reporters are not part of them.
UniProt P09471, whole entry, looked up: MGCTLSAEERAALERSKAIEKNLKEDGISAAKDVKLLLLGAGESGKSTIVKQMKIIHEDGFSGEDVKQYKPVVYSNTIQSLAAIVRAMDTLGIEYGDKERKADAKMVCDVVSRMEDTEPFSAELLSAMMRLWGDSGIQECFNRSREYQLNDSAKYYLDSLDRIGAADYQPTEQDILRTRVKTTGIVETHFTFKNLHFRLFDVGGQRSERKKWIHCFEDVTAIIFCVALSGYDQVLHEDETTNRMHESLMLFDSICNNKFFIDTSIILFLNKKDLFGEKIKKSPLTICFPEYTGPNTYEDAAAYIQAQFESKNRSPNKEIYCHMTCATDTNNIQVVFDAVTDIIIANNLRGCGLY

**Q.** Which binding response (% of control) does the source give for COC(=O)C1C(c2ccc(OC)cc2)C(C(=O)OC)S(=O)(=O)C(CCN2CCCCC2)S1(=O)=O (stereo not given) here?
**A.** inconclusive: 80%

**Q.** Cc1nc(SCc2ccc(O)c([N+](=O)[O-])c2)c([N+](=O)[O-])[nH]1 was tested. Which binding response (% of control) did it give?
**A.** inconclusive: 96.5%

**Q.** COc1cc(C(=O)O)c([N+](=O)[O-])c(OC)c1OC was tested. Which binding response (% of control) did it give?
**A.** inconclusive: 92.9%

**Q.** For Cc1ccccc1CSCC(=O)NC(=O)NCc1ccco1, which binding response (% of control) is on record?
**A.** inactive: 91.7%

**Q.** With Cc1cc(C)n(-c2ccc(C(=O)NCc3ccc(F)cc3)cc2)n1 as the compound, how does the binding response (% of control) read?
**A.** inconclusive: 99.2%

**Q.** O=C1CC(N2CCC(c3nc4ccccc4o3)CC2)C(=O)N1c1ccc(F)cc1 (stereo not given) was tested. Which binding response (% of control) did it give?
**A.** inconclusive: 107%

**Q.** Which binding response (% of control) does the source give for Cn1c2ccc(F)cc2c2ncn(Cc3ccccn3)c(=O)c21 here?
**A.** inconclusive: 36%

**Q.** CCn1cc(C(=O)OCC(=O)Nc2c(C)cccc2C)c(=O)c2ccc(C)nc21 was tested. Which binding response (% of control) did it give?
**A.** inactive: 105%

**Q.** How did the binding response (% of control) turn out when CC(=O)C1C(=O)C=C(c2cccs2)CC1c1ccccc1 (stereo not given) was run?
**A.** inconclusive: 108%

**Q.** With Cc1cc(C)c(C#N)c(SCC(=O)Nc2ccccc2C)n1 as the compound, how does the binding response (% of control) read?
**A.** inactive: 102%

**Q.** Which binding response (% of control) does the source give for O=C(Nc1cccc(Cl)c1)Nc1nccs1 here?
**A.** inconclusive: 76.3%

**Q.** For CC(C)(C)c1cc(-c2csc(Nc3ccccc3)[n+]2Cc2ccc(C(=O)O)cc2)cc(C(C)(C)C)c1O, which binding response (% of control) is on record?
**A.** inconclusive: 114%

**Q.** For CCOC(=O)c1c(C)n(C)c2cc(Br)c(O)c(O)c12, which binding response (% of control) is on record?
**A.** inconclusive: 94.4%

**Q.** With Cc1ccc(C2NCCS2)cc1 (stereo not given) as the compound, how does the binding response (% of control) read?
**A.** inactive: 105%

**Q.** C/C=C/c1ccc(OCCCCN2CCC(C)CC2)c(OC)c1 was tested. Which binding response (% of control) did it give?
**A.** inconclusive: 89.1%

**Q.** With Cc1ccc(C)c2[nH]c(=O)c(CN(Cc3cccnc3)C(=S)NCc3ccco3)cc12 as the compound, how does the binding response (% of control) read?
**A.** inconclusive: 90.3%

**Q.** With COc1ccc(NC(=O)C2=Cc3ccccc3OC2)cc1 as the compound, how does the binding response (% of control) read?
**A.** inconclusive: 92.4%

**Q.** With Cc1c(Cl)cccc1NC(=S)NC(=O)CCN1C(=O)c2ccccc2C1=O as the compound, how does the binding response (% of control) read?
**A.** active: 47.1%

**Q.** Which binding response (% of control) does the source give for O=C(C1CC1)N(Cc1nc2ccccc2c(=O)[nH]1)Cc1cccs1 here?
**A.** inconclusive: 93.8%

**Q.** Which binding response (% of control) does the source give for O=C(CCc1nnc(-c2ccsc2)o1)N1CCc2c(Cl)cccc2C1 here?
**A.** inactive: 97.4%

**Q.** With O=C(CSc1ncccn1)N1CCN(S(=O)(=O)c2ccccc2)CC1 as the compound, how does the binding response (% of control) read?
**A.** inconclusive: 110%

**Q.** For O=c1[nH]c(-c2cccnc2)nc2sc(-c3ccccc3)cc12, which binding response (% of control) is on record?
**A.** inconclusive: 94.3%

**Q.** With Cc1nc2ccccc2c2c1CC(C)S2 (stereo not given) as the compound, how does the binding response (% of control) read?
**A.** inconclusive: 94.6%

**Q.** Which binding response (% of control) does the source give for COc1ccc(C(CC(=O)N2CCCC2)c2c(OC)cc(OC)c3c(-c4ccccc4)cc(=O)oc23)cc1 (stereo not given) here?
**A.** inconclusive: 92.8%

**Q.** For c1ccc(-c2[nH]ncc2CN2CCN(Cc3ccc4c(c3)OCO4)CC2)cc1, which binding response (% of control) is on record?
**A.** inconclusive: 86.4%

**Q.** How did the binding response (% of control) turn out when CC(C)OC(=O)COc1cc(O)c2c(=O)cc(-c3ccccc3)oc2c1 was run?
**A.** inconclusive: 113%

**Q.** With O=C(c1cc(-c2ccccn2)nc2ccc(Br)cc12)N1CCN(S(=O)(=O)c2ccccc2)CC1 as the compound, how does the binding response (% of control) read?
**A.** inconclusive: 107%

**Q.** For Cc1nc(C)c(C(=O)O)c(-c2cccs2)c1C(=O)O, which binding response (% of control) is on record?
**A.** inconclusive: 123%

**Q.** Which binding response (% of control) does the source give for COc1ccc(-c2noc(CSc3nc(N)cc(=O)[nH]3)n2)cc1 here?
**A.** inconclusive: 117%

**Q.** How did the binding response (% of control) turn out when COCC1CCCCN1Cc1cn(-c2ccccc2)nc1-c1ccc2c(c1)OCO2 (stereo not given) was run?
**A.** active: 182% [activator]

**Q.** For O=C(Cn1nnc(-c2cccs2)n1)NNC(=O)c1ccccc1Cl, which binding response (% of control) is on record?
**A.** inconclusive: 128%

**Q.** How did the binding response (% of control) turn out when CN(C)CCNC(=O)c1scc2c1CCCC2 was run?
**A.** inconclusive: 94.4%

**Q.** Which binding response (% of control) does the source give for Cc1ccc(-c2nc3ccccc3nc2NN)cc1 here?
**A.** inconclusive: -397%

**Q.** O=[N+]([O-])c1ccc2nc(-c3ccc(OC(F)F)cc3)cn2c1 was tested. Which binding response (% of control) did it give?
**A.** inactive: 105%

**Q.** C=CCNC(=O)CSc1ncc2c(n1)-c1c(csc1SC)CC2 was tested. Which binding response (% of control) did it give?
**A.** inconclusive: 128%

**Q.** For FC(F)Oc1ccc(-n2cc(-c3ccc(Cl)cc3)[n+]3c2CCCCC3)cc1, which binding response (% of control) is on record?
**A.** inconclusive: -68.4%

**Q.** With COc1ccc(-c2noc(CCC(=O)NCCc3cccc(C)c3)n2)cc1 as the compound, how does the binding response (% of control) read?
**A.** inconclusive: 98.3%

**Q.** With O=C(Nc1ccc(N2CCOCC2)cc1)C1CCN(C(=O)OCc2ccccc2)CC1 as the compound, how does the binding response (% of control) read?
**A.** inconclusive: 89.9%

**Q.** C[C@H]1C=C(C(=O)NCc2nc3ccccc3[nH]2)O[C@@H](OCc2ccc(CO)cc2)C1 was tested. Which binding response (% of control) did it give?
**A.** inconclusive: 72%

**Q.** COc1ccccc1CC(=O)Nc1ccc2c(c1)C(=O)NC2=O was tested. Which binding response (% of control) did it give?
**A.** inconclusive: 87.2%

**Q.** CCCCNC(=O)c1ccccc1NC(=O)CCC was tested. Which binding response (% of control) did it give?
**A.** inactive: 93.2%

**Q.** How did the binding response (% of control) turn out when O=C(c1cc(-c2cccnc2)nc2ccccc12)N1CCCc2ccccc21 was run?
**A.** inactive: 93.7%

**Q.** How did the binding response (% of control) turn out when NC(=O)c1ccc2c(=O)n3c(-c4cccs4)csc3nc2c1 was run?
**A.** inconclusive: 92.6%

**Q.** How did the binding response (% of control) turn out when COCCn1c(SCC(=O)Nc2cc(C)on2)nc2c(c1=O)SC(C)C2 (stereo not given) was run?
**A.** inconclusive: 119%

**Q.** How did the binding response (% of control) turn out when COc1ccc(C(=O)N[C@H](C(=O)NCc2cccs2)C(C)C)cc1 was run?
**A.** inconclusive: 97.4%
